# Measurements reported in PubChem BioAssay AID1508600 (Functional Genomics Laboratory (NCATS/FGL), 2020).
# Hit rate of the full screen: of about 53,000 sequences, about 3,700 (7%) were called active.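 How the source made its calls: active means gene knockdowns whose robust z-score for IL-1 alpha signal is at least 2 or at most -2, so actives lie on both sides; inactive means the rest.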 This is one part of the list.
# Test: Components of the Cytosolic LPS Sensing Pathway: Gene Identification via Genome-wide siRNA Screen;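 further: robust z of the log signal after scaling to non-targeting control siRNA wells of the plate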
# Details: RAW264.7 macrophages, IL-1a HTRF, actives lie on both sides, screened at 100 nM (by protocol), cells primed 5 h with Pam3CSK4 first
# Method in brief: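 Using IL-1a HTRF as read-out, the screen measured release from RAW264.7 cells after 48h siRNA knockdown (100 nM), 5 h Pam3CSK4 priming and 24 h cytosolic LipidA. Values were expressed relative to negative-control wells as robust z-scores.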
row,Sequence,z-score
1,GGGAAAUAAGUCUCGAACGTT against Kif13a,inactive: 0.554
2,GGGUGUUCCUAUCUCCUUCTT against Angptl6,inactive: -0.161
3,GCCAAGGUGGAAUUUUUGGTT against Gpx8,inactive: 0.139
4,CCUAUCUUCCUGAAUACAUTT against Aqp7,active: 2.71
5,GGAUGAGGAUGACUUUGAGTT against Tnk2,inactive: 0.584
6,GGUUCCACUCAACUGAAGATT against Actl7b,inactive: -0.123
7,GCAAAUGGAUCACAGGCCUTT against Nle1,inactive: 0.527
8,GCUACGUUUACUGACCACATT against Bcat1,inactive: 1.55
9,CGGCUUCCCAAAAGAUGUGTT against Aire,inactive: -1.72
10,GGAGCUAUGGCUCAUACAUTT against Spire1,inactive: 1.76
11,GGUGUUGUUUCGAAUUAUUTT against Xrn1,inactive: 0.44
12,CGUGGACGGAAAUGUUAAUTT against Trpc3,inactive: -0.29
13,GGAUUUUUGUGCAGAGUUATT against Hykk,inactive: -0.834
14,GGAAAAAAAAAUGUCCUUGTT against Rit2,inactive: -0.0059
15,GGACCAGCUUUUUAAUGUUTT against Prpsap2,inactive: 0.373
16,GGCAUUUGGUCUUCAUAAATT against Gask1b,inactive: -0.58
17,CGGAUGAAAGUGUCUUGAUTT against Slbp,inactive: -0.363
18,GGAAGAACACAAAACUGACTT against Cdkn1b,inactive: -0.463
19,GGAAAGACCACCAAAUCCCTT against Dpy30,inactive: 1.48
20,CGAUGGUGUUUUUUGGCUATT against Svopl,inactive: -0.366
21,GGAAGGACAGUCUGCUCAUTT against Ripor1,inactive: -0.91
22,GGAGCUGUUUCUGUUAUUGTT against F8a,inactive: -0.35
23,GGGCACAUAUAAACUUAUUTT against Dnaic1,inactive: 0.253

row,Sequence,z-score
1,GCGCAUACCUGUGUGUCAUTT against Tyk2,inactive: -0.0474
2,CGUACUUGCCUAUGUAUAGTT against A830031A19Rik,inactive: -0.66
3,GCUCUAAGGGCUGUUGCUATT against Cep20,inactive: 1.74
4,GGGAUUUUUGAAACUGAAGTT against Glod4,active: -2.78
5,GGUACUGUUUGCAUUUAUUTT against Ormdl1,inactive: 0.534
6,GCUAAUACGAUUUACUUUGTT against Cntn6,inactive: 0.586
7,GCUAAUAUUAGGCUACAUCTT against Evi2a,inactive: -0.508
8,CGCACUGAGUCUGAAUAUGTT against Hibch,inactive: -0.463
9,GGAAAUCACAGAAGGAGAUTT against Fxr2,inactive: -1.17
10,GCACUAAUCAAUAUCUAGGTT against Klf8,inactive: 0.693
11,GGUCAAAAACCACAGAAUATT against Mob1a,inactive: 0.631
12,CGAAAUGCCUGAAAACUUCTT against Palmd,inactive: 1.61
13,GCCACUCCAUAUGCCAUAGTT against Brsk2,inactive: 1.7
14,GGACACCAAAAAGAAAGAATT against Ehd3,inactive: -0.532
15,GCUGUUAUUUAGGUUUCAGTT against Cxcl2,inactive: 0.521
16,GGUAAUAGGCAAAGAUUUATT against Hdac9,inactive: 0.777
17,GGAGGAGAACACCUUGAAUTT against Trpc1,inactive: 0.0324
18,CCCUCACAAUGAUCGAUUUTT against Tkt,inactive: -0.885
19,GGUGAUACCAUCACUUUGATT against Mark2,inactive: 0.173
20,GGACGAAUUCUGAUGUCUATT against Nenf,inactive: -0.356
21,CGAUAUGUGUUUGUAAUGGTT against Atp6v1d,inactive: -0.853
22,GGACAGAUUACAUCACUUCTT against Gemin2,inactive: -1.85
23,GGUCCCAGUCAUUAUCCACTT against Gdap1l1,active: 2.43

row,Sequence,z-score
1,GGAGCAGAAAAUCGUUGUGTT against Rpl34,inactive: 1.37
2,GGGAUCAAGGCUAGAAGAGTT against AY702102,inactive: 0.623
3,CCGUUGUAUAUACCAGUAUTT against Syt1,inactive: 0.218
4,GCACAACUCUGUUCUGUUGTT against Olfr491,inactive: -0.481
5,GCAUUGGUGUUUAGUUGGUTT against Gdf2,inactive: 1.11
6,GCUGAGUUAUCGUUUAUGATT against Cldn18,inactive: -0.259
7,GGUACACUGCUUAUUGGUATT against Olfr857,inactive: 0.761
8,GGGACGAUGACAAGAACAATT against Mcfd2,inactive: 1.19
9,GGUGUUAGAAAGAGACCAGTT against Vamp3,inactive: 0.725
10,GGCCCAGGAGAUUUUCCAATT against Proc,inactive: 1.71
11,GGUUGUUUUGGAAUUGAUATT against Smu1,active: -2.82
12,GGUGCGAGUGGAAUUCAUGTT against Rps28,inactive: 0.39
13,GGGUUUUGUCUUAAUGAAUTT against Scn10a,inactive: -0.478
14,GCAUGACAAAUCUAAAAAGTT against Pcdh7,inactive: -0.137
15,GGCUUAGGUGCCACAUUCUTT against Ggt6,inactive: 0.414
16,GCCUGUAGCAGAGAACUUUTT against Tmem59l,inactive: 1.1
17,CCGUGAAUAAGGUCAUCUUTT against Prss39,inactive: 0.22
18,GUUGGAGGAGAAACUCUGGTT against Hbb-bh1,inactive: 1.03
19,GGAAUUGAUUACUAUUACCTT against Ecpas,inactive: 1.97
20,CCUUGGUGUGCAUUGGAUGTT against Fbxo15,inactive: -1.7
21,GCGGCUCCAUCAGAAAAUGTT against Htatip2,inactive: 0.526
22,GCCUGUAAGAUACUGUACATT against Bbc3,inactive: 0.592
23,CCACAGCUAAAGAAUCUUUTT against Spidr,inactive: -1.88

# Reformatted bar-delimited: entries from further up.
row | Sequence | z-score
9 | GGUGUUAGAAAGAGACCAGTT against Vamp3 | inactive: 0.725
17 | CCGUGAAUAAGGUCAUCUUTT against Prss39 | inactive: 0.22
19 | GGAAUUGAUUACUAUUACCTT against Ecpas | inactive: 1.97
